# Measured values from the supplement of paper PMC5407854, “Inhibitor of ppGalNAc-T3-mediated O-glycosylation blocks cancer cell invasiveness and lowers FGF23 levels” (eLife, 2017).
# Several values for one entry are separate records, joined by “and”; a condition that tells them apart may be missing. Equal entries are not always repeated. ± gives the standard deviation of the averaged measurements. The full ranking holds about 1,700 compounds; the median of “T2 sensor activation Q score (MG/GFP ratio z-score vs DMSO controls)” is about 0.3, and the highest 2% start at about 1.9. The list shows a part of the results.
# System: ppGalNAc-T2 sensor
# Assay: T2 sensor activation Q score (MG/GFP ratio z-score vs DMSO controls) (SD units); higher = more sensor activation (inhibition of ppGalNAc-T2 glycosylation)
# Conditions: HEK293 sensor cells; 10 µM; 6 h
# Description: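 Cells were treated with compound at 10 uM for 6 h, then MG/GFP ratio was read by flow cytometry (10,000 cells per well, duplicate wells). Q = (R - R_neg)/SD_neg relative to DMSO vehicle controls; the signal rises when the glycosyltransferase is inhibited.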
row,SMILES,T2 sensor activation Q score
1,COc1cc(N=Nc2ccccc2C(=O)O)ccc1O,1.55
2,NC(=O)CCC(C(=O)O)N1C(=O)C2C3CCC(C3)C2C1=O (stereo not given),-0.75
3,CCOC(=O)c1cc[nH]c1CC(=O)NC,-0.4
4,O=C(CC1(O)CCCCC1)OC1CCCC1,-0.05
5,O=C(O)c1cc2ccccc2c2cc(Br)ccc12,-0.75
6,c1ccc2cc(OCCOCCOc3ccc4ccccc4c3)ccc2c1,1.6
7,CCOC(=O)c1c(O)cc(C)[nH]c1=O,0
8,Nc1ccccc1-c1nc2ccncc2[nH]1,0.7
9,Cc1cc(=O)c2c(=O)[nH][nH]c2[nH]1,-0.75
10,CC(=O)Nc1ccc(S(=O)(=O)N/N=c2/sc3ccccc3n2C)cc1N,-0.6
11,c1ccc(-c2cn3ccccc3n2)cc1,-0.6
12,Oc1ccc(-c2nc3ccccc3s2)c(O)c1,0.2
13,O=C(Nc1ccccc1)Oc1ccc[nH]c1=O,0.1
14,O=C(O)c1ccc(N2CCCCC2)cc1O,-0.25
15,CC(=O)CC[N+](C)(C)C,-1.1
16,CN(Cc1cnc2nc(N)nc(N)c2n1)c1ccc(C(=O)N[C@@H](CCC(=O)O)C(=O)O)cc1,-1.65
17,CCCCCCCCC(=O)c1c(OC)oc(C=O)cc1=O,0.5
18,CC1=CC(C)(C(Cl)(Cl)Cl)C(C)=C/C1=N/O (stereo not given),1.25
19,CC(=O)NCCCOc1ccc([N+](=O)[O-])cc1Cl,0.4
20,C(COC1CC2CC1C1C2CC2OC21)OC1CC2CC1C1C2CC2OC21 (stereo not given),0.15
21,C=CCOc1ccc(S(C)(=O)=O)cc1,1.1
22,[O-][n+]1nc2ccccc2c2ccccc21,-1.75
23,COC1=C(N)C(=O)c2nc(-c3nc(C(=O)O)c(C)c(-c4ccc(OC)c(OC)c4O)c3N)ccc2C1=O,1 and 1.6
24,OCc1nc2nc(Cl)c(Cl)nc2[nH]1,0.4
25,CCC1(CC)C(=O)NC(=S)N=C1N,1.7
26,O=C(Nc1cccc([N+](=O)[O-])c1)c1cccc(C(=O)Nc2cccc([N+](=O)[O-])c2)c1,-0.8

row,SMILES,T2 sensor activation Q score
1,Cc1ccc(N=Nc2ccc(N)cc2C)c(S(N)(=O)=O)c1,1.5
2,Cc1nc2ccccc2nc1NS(=O)(=O)c1ccc(N)cc1,1.35
3,Cn1ncc2c(Nc3ccccc3Cl)nc(Cl)nc21,1.35
4,O=C(Nc1cccc2ccccc12)c1cc2c(cc1Br)OCO2,0.45
5,O=c1cccc2cc(O)c(O)c(O)c2c1O,2.35
6,Cc1oc2c(c(C)nn2-c2ccccc2)c(=O)c1Cl,0.9
7,CC(=O)Oc1c(C)c(OC(C)=O)c2c(c1C(C)=O)OC1CC(=O)C(C(C)=O)=C(O)C21C (stereo not given),-1.8
8,CC(C)NC(=O)Nc1cccc(Cl)c1,0
9,Cc1c(Cl)cccc1Nc1ncccc1C(=O)OCC(O)CO (stereo not given),-0.65
10,O=C(Nc1cccc(Cl)c1)Nn1cnnc1,0.65
11,O=C1C2C3C=CC(O3)C2C(=O)N1Nc1ccccc1 (stereo not given),0.25
12,Cc1nc(Nc2ncc(C(=O)Nc3c(C)cccc3Cl)s2)cc(N2CCN(CCO)CC2)n1,-1.8
13,FC(F)(F)c1cccc(-c2nc3nc(Cl)c(Cl)nc3[nH]2)c1,-0.2
14,Cc1ccc(C2C=CC(C#N)=CN2Cc2ccccc2)cc1 (stereo not given),1.2
15,COc1cc([C@@H]2c3cc4c(cc3[C@@H](O[C@@H]3O[C@@H]5CO[C@@H](c6cccs6)O[C@H]5[C@H](O)[C@H]3O)[C@H]3COC(=O)[C@H]23)OCO4)cc(OC)c1O,0.9 ± 1.5
16,CCOC(=O)C(=O)Cc1nc2ccccc2s1,0.1
17,CCOc1ccc(NC(=O)C2CCCN(C)C2)cc1 (stereo not given),1
18,NC(=O)c1ccc(Cl)c2ccccc12,-0.85
19,c1ccc(Sc2ncnc3ccccc23)cc1,1.2
20,CN(C)C(=O)c1cccc(COc2ccc(N3C(N)=NC(N)=NC3(C)C)cc2Cl)c1,-0.65
21,Nc1ccn([C@@H]2O[C@H](CO)[C@@H](O)[C@@H]2O)c(=O)n1,0.45
22,O=C(Nc1ccccc1)Nc1ccccn1,-1.7
23,COC(=O)C1CC(O)C(O)C(O)C1 (stereo not given),-0.4
24,CCCCc1c(C)[nH]c(=S)[nH]c1=O,-0.75
25,CC(=O)Nc1nc(C)c(CCCOc2ccc([N+](=O)[O-])cc2)c(=O)[nH]1,0.3
26,O=C1COc2cccnc2N1,1.65

row,SMILES,T2 sensor activation Q score
1,CC(=O)CC(=O)Nc1ccc2ccccc2c1,0.2
2,CN1CN(C)C(c2ccncc2)=C1c1ccncc1,0.4
3,Cc1cc(-n2cnc3c(=O)[nH]cnc32)ccc1N,1.35
4,CCC1(C(=O)OC)CCc2c(cc(OC)c3ccccc23)C1=O (stereo not given),0.55
5,Cc1cc(/C=C2\SC(=S)NC2=O)cc(C)c1O,0.35
6,Cc1nnc2nc(N)[nH]n2c1=O,0.6
7,O=C(Nc1ccc2ccccc2c1)c1ccc(Cl)cc1Cl,0.05
8,CS(=O)(=O)Oc1ccc(Br)c2cccnc12,0.05
9,CCOC(=O)Nc1c2ccccc2nc2ccccc12,-0.05
10,COc1ccc(N=Nc2ccc(N)nc2N)cc1,1.2
11,CCOC(=O)C1CC(=O)c2cc(OC)c(OC)cc2C1 (stereo not given),1.2
12,COc1ccc(Cc2nnc(SC)n2-c2ccc(F)cc2)cc1OC,0.45
13,COc1cc(C(=O)C(=O)c2ccc(O)c(OC)c2)ccc1O,1.55
14,Oc1ccc(Nc2ccc3ccccc3c2)cc1,-3.05
15,COc1ccc(C(C)=O)cc1CO/N=C1\CSCc2ccccc21,-0.75
16,COc1cc2c(=O)n3c4c(cccc4c2cc1OC)CC3,0.8
17,Nc1ncc2[nH]c(N)nc2n1,0.2
18,CCOC(=O)C1C(=O)C(=O)N(C(C)C)C1C(=O)OCC (stereo not given),1.8
19,Nc1ncn([C@H]2C[C@H](O)[C@@H](CO)O2)c(=O)n1,-1.2
20,O=C(NC1(N2CCOCC2)CC1)c1ccc(Cl)cc1,-1.5
21,Nc1ncnc2c1cnn2C1CCCCC1,-1.95
22,CCCCC(=O)N1CCCC(C)C1 (stereo not given),-0.75
23,Nc1nc2c(ncn2C2CCCC2)c(=O)[nH]1,0.3
24,CCN(CC)CCNc1c(C)cc(CO)c(Cl)c1C,0.25
25,O=C([O-])C(=O)[O-].[NH-][C@@H]1CCCC[C@H]1[NH-].[Pt+4],-0.5
26,Cc1cccc(NC2=C(C#N)C(=O)NC3(CCCC3)S2)c1,-0.9

row,SMILES,T2 sensor activation Q score
1,c1ccc(-c2nc(-c3ccccn3)nc(-c3ccccn3)n2)nc1,-0.55
2,Nc1ccc(Cn2ccc3c4c(N)nc(N)nc4ccc32)cc1,-1.65
3,Clc1nc(Cl)nc(-c2cn(-c3ccccc3)c3ccccc23)n1,0
4,O=C(COc1cc(Cl)c(Cl)cc1Cl)Nc1ccc([N+](=O)[O-])cc1Cl,-1.2
5,Brc1ccc(N=Nc2ccc3ccccc3n2)cc1,1.9
6,Cc1ccc(Cl)cc1NC(=O)N(C)CCO,-0.1
7,CCCNC(=O)c1ccc(S(N)(=O)=O)cc1,-1.1
8,Cn1ccc(=Nc2ccc(NC(=O)c3ccc(N=c4ccn(C)c5ccc([N+](=O)[O-])cc45)cc3)cc2)cc1,-0.15
9,O=C1c2cccc(Sc3ccccc3)c2C(=O)c2c(Sc3ccccc3)cccc21,-0.5
10,CCOC(=O)Cc1c[nH]c(=S)[nH]c1=O,0.5
11,C/C=C1\NC(=O)[C@H]2CSSCC/C=C/[C@H](CC(=O)N[C@H](C(C)C)C(=O)N2)OC(=O)[C@H](C(C)C)NC1=O,3
12,O=C(OCC1CCC=CO1)C1CCC=CO1 (stereo not given),1.85
13,Cc1cc(=O)[nH]c(N/N=C2/CCCCC2C)n1 (stereo not given),1.35
14,CC1=CC2=C(C=O)C(=O)[C@](C)(O)[C@@H](O)C2=CO1,-0.35
15,S=C(Nc1ccccc1)Nc1nccs1,0.1
16,Cc1cc(=S)[nH]c(=S)[nH]1,1.9
17,CS(=O)(=O)Nc1nc2ccccc2[nH]1,-0.55
18,CCOC(=O)CC1(C)NC(C(=O)O)C(C)(C)S1 (stereo not given),1.4
19,Cc1c(N2CCCC2)cc2c(c1NC(=O)c1ccccc1Cl)C(C)(C)CC2(C)C,-1.65
20,Nc1ccc(Br)cc1Br,-0.95
21,O=c1cc(-c2cccnc2)oc2c1ccc1ccccc12,1
22,CCCCOc1ccc(Nc2cc(Cl)ccc2C(=O)O)cn1,1.2
23,CCOC(=O)C(C#N)C(=N)C1C(=O)OC2CCCCC21 (stereo not given),-0.45
24,NS(=O)(=O)c1ccc(NC2(C(=O)O)CCCC2)cc1,0.85
25,CN1CCc2ccccc2C1Cc1ccccc1NC(=O)c1sc2ccccc2c1Cl (stereo not given),-1.9
26,S=c1[nH]ccn1-c1ccccc1Cl,1

row,SMILES,T2 sensor activation Q score
1,Nc1[nH]nc2nc(-c3ccccc3)[nH]c(=O)c12,0.05
2,CCCCSc1ncnc2[nH]ncc12,0.45
3,COCC(=O)OC1CCn2c1nc1c2C(=O)C(C)=C(NC(C)=O)C1=O (stereo not given),0.2
4,CSc1cccc(NC(=O)OC2CCCCCCCCCCC2)c1,0.1
5,CN(NC(=O)C(=O)NCc1ccco1)C(=O)NC1CCCCC1,0.4
6,Cc1nc(-c2ccccc2)c(Cc2ccccc2O)c(=O)[nH]1,1.45
7,O=C(O)c1ccc(OCCOc2ccccc2)cc1,0.55
8,O=C(O)c1cc(Cl)n[nH]c1=O,0.75
9,O=C1C(Cl)=C(NCCc2ccccc2)C(=O)c2ccccc21,1.5
10,CNc1nc(SC)n(C)c(=O)c1N=O,0.4
11,COc1ccc(Br)c2c1C(=O)CC2,1.4
12,CC(C)c1cc(C(C)C)n2nc(N)nc2n1,1.25
13,Cc1nc(Br)c(Br)c(C)c1Br,0.1
14,NC(=O)C1=C[C@H]2[C@H]3C=C[C@@]2(O)C(=O)O[C@@H]3O1,0.8
15,CO/N=C1/C=C(C)C(=O)C(C)=C1C,0.4
16,O=C(O)C(=O)Nc1ncn[nH]1,-0.7
17,O=c1[nH]cnc(CN2CCCCC2)c1O,0.2
18,Cc1cccnc1NC(=O)c1csnn1,-0.6
19,CN1CCC=C(C(=O)N2c3ccccc3Sc3ccc(Cl)cc32)C1,0.25
20,c1ccc(CSc2nnc3c4ccccc4c4ccccc4c3n2)cc1,-1.55
21,OC1(Cc2ccccc2)CCNCC1,-0.5
22,CC(C)(C)NC(=S)NC(C)(C)C,-1.7
23,NC(=O)Nc1n[nH]c(-c2ccccc2)n1,0.6
24,CS/C(N)=N\S(=O)(=O)c1ccc(NC(C)=O)cc1,-0.25
25,N#C/C(=C\c1cc(O)c(O)c(O)c1)C(N)=O,0.75
26,Cc1ccccc1OCC(O)CN1CCN(c2ccc(Cl)cc2)CC1 (stereo not given),0.4

# Grouped by structure: those above containing a cyano group (4)
row,SMILES,T2 sensor activation Q score
14,Cc1ccc(C2C=CC(C#N)=CN2Cc2ccccc2)cc1 (stereo not given),1.2
26,Cc1cccc(NC2=C(C#N)C(=O)NC3(CCCC3)S2)c1,-0.9
23,CCOC(=O)C(C#N)C(=N)C1C(=O)OC2CCCCC21 (stereo not given),-0.45
25,N#C/C(=C\c1cc(O)c(O)c(O)c1)C(N)=O,0.75
